These results are taken from PubChem BioAssay AID2685 (National Center for Advancing Translational Sciences (NCATS), 2010).

The list shows a part of the results. These are further read-outs of the screen, such as a control signal, another cell line or another target. No call is given for them. Compounds called inactive in the main read-out are mostly missing here. Potencies come from curve fits of mixed quality, noted in brackets.

This assay in a line: qHTS Assay for Lipid Storage Modulators in Drosophila S3 Cells.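 On cell number change: cells counted by Cell Tracker Red CMTPX staining in the red channel.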 The conditions noted are these: BODIPY lipid droplet fluorescence, 18-24 h; for cell number change: measured here: cell count max response, cells fed with added oleic acid. The procedure, abridged:
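Drosophila S3 cells loaded with oleic acid (400 uM, as added) and compounds at several concentrations; lipid droplets imaged by 488-nm laser-scanning cytometry, 500–530 nm intensity and object ratio to cell channel. Percent activity normalized to 20 uM Triacsin C.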
On the technique in general: Quantitative high-throughput screening tests each substance at several concentrations.

[1] abbreviates: measured here: cell number channel AC50, cells fed with added oleic acid.
Where [2] appears, read: measured here: lipid fluorescence (Fed channel) AC50, cells fed with added oleic acid.

One may read the AC50 as the concentration giving half of the maximal activity seen. A higher AC50 goes with activity only at high concentration.

With `CCOCCCn1c(SCC(=O)N(C)C2CCS(=O)(=O)C2)nc2ccccc2c1=O` (stereo unspecified), the AC50 reads like this: under setting [1], 6.51 µM [falling, single point]; under setting [2], 6.51 µM [rising, partial curve, poor fit].

As for `Cc1c(N=Cc2ccc(Cl)o2)c(=O)n(-c2ccccc2)n1C`, the cell number change was -15.3%. Further, the half-maximal activity concentration (AC50) under setting [1] is 0.00461 µM [falling, full curve, poor fit].

For the molecule `CCOC(=O)c1ccc(NC(=O)N2CCc3ccccc3C2)cc1`, the cell number change was determined as 17.9%.

Regarding `CC(C)CN(C(=O)c1cccc(Cl)c1)c1c(N)n(CC(C)C)c(=O)[nH]c1=O`, the cell number change came out at 22.1%. Besides, the AC50 under setting [2] was 0.103 µM [rising, single point].

Take `Cc1onc(-c2ccccc2Cl)c1C(=O)OCC(=O)c1ccccc1`: the cell number change was determined as 6.03%. The half-maximal activity concentration (AC50) under setting [2] was 29.1 µM [falling, partial curve].

`CCN1CCN(c2nc3ccccc3nc2NS(=O)(=O)c2ccc(NC(C)=O)cc2)CC1`: the cell number change was found to be 14.9%.

With `COC(=O)C1CC(=O)N(c2ccc(C)cc2)C1` (stereo unspecified), the cell number change was -4.26%. Besides, the AC50 under setting [1] was 0.461 µM [falling, full curve]. For the same molecule, the AC50 under setting [2] is 0.326 µM [falling, full curve].

Turning to `CC(C)[C@H](NC(N)=O)C(=O)Nc1ccc(Oc2ccccc2)cc1`, the cell number change was 48.8%. For the same molecule, the half-maximal activity concentration (AC50) under setting [1] is 1.84 µM [rising, partial curve]. Further, the AC50 under setting [2] was 6.51 µM [falling, single point].

Turning to `O=c1cc(-c2ccncc2)oc2ccccc12`, the cell number change was determined as 20.6%. Besides, the AC50 under setting [1] is 0.00461 µM [rising, full curve, poor fit].

Take `O=C(NC1CCCc2ccccc21)C1CCC(CNS(=O)(=O)c2cccc3nsnc23)CC1` (stereo unspecified): the cell number change is -13.3%. Besides, the AC50 under setting [2] is 1.64 µM [rising, full curve].

As for `Cc1nnc(NC(=O)CSCc2cc(=O)c3ccccc3[nH]2)s1`, the cell number change came to 18.8%. Besides, the AC50 under setting [2] was 25.9 µM [rising, single point].

Consider `Cc1ccc(NS(=O)(=O)c2ccc3oc(=O)ccc3c2)cc1Cl`, for which the cell number change was -2.03%. The AC50 under setting [2] was 16.4 µM [falling, single point].

For the molecule `CN1CCN(S(=O)(=O)c2ccc3ccccc3c2)CC1`, the cell number change is -0.132%. The concentration at half-maximal activity (AC50) under setting [2] was 0.259 µM [falling, full curve].

Regarding `Cc1nn(-c2ccccc2)c2nc(Cl)c(C(=O)O)cc12`, the concentration at half-maximal activity (AC50) was 0.92 µM [rising, full curve] under setting [1] and 1.03 µM [rising, full curve] under setting [2].

Take `CCOC(=O)c1c(N2C(=O)C3C4C=CC(O4)C3C2=O)sc2c1CCCC2` (stereo unspecified): the cell number change is -2.92%. The AC50 under setting [1] was 0.164 µM [falling, full curve, poor fit].

Turning to `COc1ccc(-n2cnc3cc(NCc4ccco4)ccc32)cc1`, the AC50 is 0.461 µM [rising, partial curve, poor fit] under setting [1] and 2.31 µM [rising, partial curve] under setting [2].

Turning to `COCCOc1cc(N)c(Cl)cc1Cl`, the cell number change stood at 33%. For the same molecule, under setting [1], the AC50 was 0.146 µM [rising, full curve, poor fit]. Besides, the AC50 under setting [2] is 0.184 µM [rising, full curve].

Turning to `CNC(=O)c1ccc(NC(=O)CC2SC(N3CCCC3)=NC2=O)cc1` (stereo unspecified), the cell number change was -40.5%. In addition, the half-maximal activity concentration (AC50) under setting [1] is 25.9 µM [falling, single point]. Besides, the AC50 under setting [2] is 2.91 µM [rising, full curve].

As to `CNCc1c(OCc2ccc(F)cc2)ccc2ccccc12`, the AC50 under setting [2] is 0.0291 µM [falling, full curve, poor fit].

As for `COc1ccc(Cl)cc1NC(=O)C1CCN(C(=O)C2CC(=O)N(c3ccc(C)cc3)C2)CC1` (stereo unspecified), the cell number change is 6.25%. Also, the AC50 under setting [2] was 0.326 µM [rising, partial curve, poor fit].

As for `COc1cc(CCN2C(=O)N[C@@H](c3cccc(C(F)(F)F)c3)C(C(C)=O)=C2C)cc(OC)c1OC`, the cell number change is -13%. Moreover, the AC50 under setting [2] was 1.84 µM [rising, partial curve, poor fit].

`CCN(CC)Cc1ccccc1Sc1ccccc1`: the cell number change was -26.2%. Moreover, the half-maximal activity concentration (AC50) under setting [2] was 5.8 µM [falling, full curve].

Consider `CCCCOC(=O)CSC(=S)N(C)Cc1cccs1`, for which the cell number change is -34.3%. Besides, under setting [1], the concentration at half-maximal activity (AC50) was 2.59 µM [falling, full curve, poor fit]. In addition, the AC50 under setting [2] is 2.31 µM [falling, partial curve].

As to `Cc1cc(NC(=O)Cc2ccccc2)no1`, the cell number change was -2.13%.

Regarding `CCOc1cc(C2C3=C(CCCC3=O)NC3=C2C(=O)CCC3)cc(Cl)c1O`, the cell number change was -17.3%. For the same molecule, under setting [2], the half-maximal activity concentration (AC50) is 3.26 µM [falling, single point].

Regarding `COc1ccc(-c2nnc(SCc3ccccc3F)o2)cc1OC`, the cell number change is -31.5%. The concentration at half-maximal activity (AC50) under setting [1] is 14.6 µM [falling, partial curve].

Consider `C=C(C)CSc1nnc(-c2ccc(C)cc2)n1N`, for which the cell number change turned out to be 10.1%. Further, the AC50 under setting [2] is 0.411 µM [rising, partial curve, poor fit].

As for `CCN1CCN(C(=O)C2CCC(CNS(=O)(=O)c3ccc(NC(C)=O)cc3)CC2)CC1` (stereo unspecified), the cell number change is 3.42%. For the same molecule, the AC50 under setting [2] was 0.146 µM [rising, single point].

For the molecule `CC(OC(=O)CN(C)S(=O)(=O)c1ccc(Cl)cc1)C(=O)Nc1cccc(Cl)c1` (stereo unspecified), the cell number change turned out to be 9.64%. Also, the AC50 under setting [2] was 0.731 µM [falling, full curve].

Consider `Cc1cc(C)cc(OCC(=O)OCC(=O)Nc2cc(S(=O)(=O)N3CCOCC3)ccc2C)c1`, for which the cell number change was -12.7%.

Take `C=CCN1C(=O)CN=C1Nc1ccccc1`: the cell number change is -7.2%. Under setting [2], the half-maximal activity concentration (AC50) was 6.51 µM [rising, single point].

As for `CN(C)CCCN(C(=O)c1ccc(S(=O)(=O)N2CCCCCC2)cc1)c1nc2ccc(Br)cc2s1`, the cell number change was determined as 14.7%. The concentration at half-maximal activity (AC50) under setting [1] was 1.84 µM [rising, partial curve]. The AC50 under setting [2] is 29.1 µM [rising, single point].

With `CC(C)c1ccc(NC(=O)CSc2nc3ccsc3c(=O)n2Cc2ccc(C(=O)O)cc2)cc1`, the cell number change is -21.9%.

With `COCCCN(C(=O)CCOc1ccc(C)cc1)c1c(N)n(Cc2ccccc2)c(=O)[nH]c1=O`, the AC50 under setting [1] was 2.31 µM [rising, partial curve, poor fit].

Take `COc1ccc(C(CNC(=O)c2cccc(S(=O)(=O)Nc3ccccc3OC)c2)N2CCOCC2)cc1` (stereo unspecified): the cell number change was -13.4%. Further, the AC50 under setting [1] is 2.59 µM [falling, partial curve, poor fit]. In addition, the AC50 under setting [2] was 2.31 µM [falling, partial curve, poor fit].

Take `O=C(Nc1cc([N+](=O)[O-])ccc1C(=O)NCCN1CCOCC1)c1ccccc1`: the cell number change came to 7.92%. Moreover, the AC50 under setting [2] is 3.66 µM [rising, single point].

With `Cc1cccc(C(=O)N[C@H](C(=O)NCCc2ccc(Cl)cc2)C(C)C)c1`, the cell number change came out at 12.1%. Besides, the half-maximal activity concentration (AC50) under setting [2] is 0.146 µM [rising, full curve, poor fit].

In the case of `O=C(O)c1ccccc1C(=O)NNc1cccc(Cl)n1`, the cell number change was -1.41%. Besides, the AC50 under setting [2] was 0.00517 µM [falling, full curve, poor fit].

Turning to `CCOC(=O)c1sc2nc(CC(=O)OC)nc(NCCN3CCOCC3)c2c1C`, the concentration at half-maximal activity (AC50) reads like this: under setting [1], 4.11 µM [rising, partial curve, poor fit]; under setting [2], 5.8 µM [rising, partial curve].

Turning to `CN(C)Cc1ccc(F)cc1Sc1cc(Cl)ccc1Cl`, the cell number change was -56.3%. In addition, under setting [1], the concentration at half-maximal activity (AC50) is 23.1 µM [falling, single point]. The AC50 under setting [2] was 29.1 µM [falling, single point].

With `CCOC(=O)NC1(C(F)(F)F)C(=O)N(Cc2ccccn2)C2=C1C(=O)CC(C)(C)C2` (stereo unspecified), the cell number change was -30.6%. In addition, the AC50 under setting [1] is 0.00366 µM [falling, full curve, poor fit]. For the same molecule, the AC50 under setting [2] is 6.51 µM [falling, partial curve].

`CCCCCN(C(=O)CCC(=O)OCC(=O)c1ccc(C(C)CC)cc1)c1c(N)n(CCCC)c(=O)[nH]c1=O` (stereo unspecified): the AC50 under setting [1] was 0.00461 µM [rising, full curve, poor fit].

With `CCOc1ccc(C2c3cc(OC)c(OC)cc3CC(=O)N2c2ccccc2)cc1` (stereo unspecified), the cell number change is -17.2%. For the same molecule, under setting [1], the AC50 is 0.164 µM [falling, full curve, poor fit]. In addition, the half-maximal activity concentration (AC50) under setting [2] is 0.00517 µM [falling, full curve, poor fit].

Turning to `COc1ccc(S(=O)(=O)N(C)c2ccccc2)c2cccnc12`, the cell number change is -15.8%.

Regarding `Cc1cccc(NS(=O)(=O)c2ccc(C)c(C(=O)NCC(c3ccco3)N3CCCCC3)c2)c1` (stereo unspecified), the cell number change was -23%. Besides, under setting [2], the concentration at half-maximal activity (AC50) was 29.1 µM [falling, single point].

Consider `CCc1ccc(NC(=S)N(CCC(C)C)C2CCN(C(C)=O)CC2)cc1`, for which the half-maximal activity concentration (AC50) under setting [2] was 6.51 µM [rising, partial curve, poor fit].

Take `Cc1cc(S(=O)(=O)N2CCCCC2CCNC(=O)C(=O)NCc2cccnc2)ccc1F` (stereo unspecified): the cell number change was -29.7%. The AC50 under setting [2] is 0.00517 µM [falling, full curve, poor fit].

Regarding `CC12CCC(C(=O)NCc3cccnc3)(OC1=O)C2(C)C` (stereo unspecified), the cell number change worked out at 2.19%. Further, under setting [2], the concentration at half-maximal activity (AC50) is 0.00517 µM [falling, full curve, poor fit].

For `Cc1cc2ncn(C(=O)c3c(-c4ccccc4)noc3C)c2cc1C`, the cell number change is -16.7%.

For `CCN(C(=O)COC(=O)c1ccc(C=O)cc1)c1c(N)n(Cc2ccccc2)c(=O)[nH]c1=O`, the cell number change came out at 9.73%. Further, under setting [2], the concentration at half-maximal activity (AC50) is 0.291 µM [rising, partial curve, poor fit].

Regarding `Cc1noc(C)c1S(=O)(=O)N(CC(=O)NCCc1ccccc1)c1ccc(C(C)C)cc1`, the cell number change is -7.08%.

For `COC(=O)C1=C(C)NC(C)=C(C(=O)OC)C1c1ccccc1OCc1c(C)no[n+]1[O-]`, the cell number change was -24.9%. Besides, the AC50 under setting [1] was 0.461 µM [falling, full curve, poor fit].

Turning to `C=CCN(CC(=O)NC1CCCC1)C(=O)C(=O)Nc1ccc2c(c1)OCCO2`, the cell number change came out at 19.2%. In addition, the concentration at half-maximal activity (AC50) under setting [2] is 0.103 µM [rising, full curve, poor fit].

`COc1cc(-c2nc(Cc3c(F)cccc3Cl)no2)cc(OC)c1OC`: the AC50 is, setting by setting: under setting [1], 4.11 µM [rising, single point]; under setting [2], 6.51 µM [rising, single point].

As for `CCCCC1=NN(C(=O)c2cccnc2)C(O)(C(F)(F)F)C1` (stereo unspecified), the cell number change was -21.5%. Further, under setting [1], the AC50 was 4.11 µM [falling, single point]. The half-maximal activity concentration (AC50) under setting [2] is 3.66 µM [falling, full curve].

On to `COc1ccc(Cl)cc1NC(=S)NCCC(c1ccccc1)c1ccccc1`, for which the cell number change was -23.8%. Under setting [2], the AC50 was 14.6 µM [falling, single point].
